Laboratory results from paper PMC8261665.
Results are given in words; binding and its absence hold for the method and conditions named. Binding seen in cells or lysates may run through a third protein. Some results given as binding are weak or reduced against the parent protein; the word gives no strength.

Amino acid sequences for entries named in this document (tags omitted). Residues count along the entry.
UniProt O15260: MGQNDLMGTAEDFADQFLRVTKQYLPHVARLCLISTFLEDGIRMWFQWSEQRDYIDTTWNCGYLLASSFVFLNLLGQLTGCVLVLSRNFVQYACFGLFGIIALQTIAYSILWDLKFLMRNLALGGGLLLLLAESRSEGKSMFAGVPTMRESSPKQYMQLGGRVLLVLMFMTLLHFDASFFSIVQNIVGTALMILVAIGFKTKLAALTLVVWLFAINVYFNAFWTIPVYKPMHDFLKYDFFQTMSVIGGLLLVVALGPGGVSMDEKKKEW
UniProt P04114, residues 28-4563: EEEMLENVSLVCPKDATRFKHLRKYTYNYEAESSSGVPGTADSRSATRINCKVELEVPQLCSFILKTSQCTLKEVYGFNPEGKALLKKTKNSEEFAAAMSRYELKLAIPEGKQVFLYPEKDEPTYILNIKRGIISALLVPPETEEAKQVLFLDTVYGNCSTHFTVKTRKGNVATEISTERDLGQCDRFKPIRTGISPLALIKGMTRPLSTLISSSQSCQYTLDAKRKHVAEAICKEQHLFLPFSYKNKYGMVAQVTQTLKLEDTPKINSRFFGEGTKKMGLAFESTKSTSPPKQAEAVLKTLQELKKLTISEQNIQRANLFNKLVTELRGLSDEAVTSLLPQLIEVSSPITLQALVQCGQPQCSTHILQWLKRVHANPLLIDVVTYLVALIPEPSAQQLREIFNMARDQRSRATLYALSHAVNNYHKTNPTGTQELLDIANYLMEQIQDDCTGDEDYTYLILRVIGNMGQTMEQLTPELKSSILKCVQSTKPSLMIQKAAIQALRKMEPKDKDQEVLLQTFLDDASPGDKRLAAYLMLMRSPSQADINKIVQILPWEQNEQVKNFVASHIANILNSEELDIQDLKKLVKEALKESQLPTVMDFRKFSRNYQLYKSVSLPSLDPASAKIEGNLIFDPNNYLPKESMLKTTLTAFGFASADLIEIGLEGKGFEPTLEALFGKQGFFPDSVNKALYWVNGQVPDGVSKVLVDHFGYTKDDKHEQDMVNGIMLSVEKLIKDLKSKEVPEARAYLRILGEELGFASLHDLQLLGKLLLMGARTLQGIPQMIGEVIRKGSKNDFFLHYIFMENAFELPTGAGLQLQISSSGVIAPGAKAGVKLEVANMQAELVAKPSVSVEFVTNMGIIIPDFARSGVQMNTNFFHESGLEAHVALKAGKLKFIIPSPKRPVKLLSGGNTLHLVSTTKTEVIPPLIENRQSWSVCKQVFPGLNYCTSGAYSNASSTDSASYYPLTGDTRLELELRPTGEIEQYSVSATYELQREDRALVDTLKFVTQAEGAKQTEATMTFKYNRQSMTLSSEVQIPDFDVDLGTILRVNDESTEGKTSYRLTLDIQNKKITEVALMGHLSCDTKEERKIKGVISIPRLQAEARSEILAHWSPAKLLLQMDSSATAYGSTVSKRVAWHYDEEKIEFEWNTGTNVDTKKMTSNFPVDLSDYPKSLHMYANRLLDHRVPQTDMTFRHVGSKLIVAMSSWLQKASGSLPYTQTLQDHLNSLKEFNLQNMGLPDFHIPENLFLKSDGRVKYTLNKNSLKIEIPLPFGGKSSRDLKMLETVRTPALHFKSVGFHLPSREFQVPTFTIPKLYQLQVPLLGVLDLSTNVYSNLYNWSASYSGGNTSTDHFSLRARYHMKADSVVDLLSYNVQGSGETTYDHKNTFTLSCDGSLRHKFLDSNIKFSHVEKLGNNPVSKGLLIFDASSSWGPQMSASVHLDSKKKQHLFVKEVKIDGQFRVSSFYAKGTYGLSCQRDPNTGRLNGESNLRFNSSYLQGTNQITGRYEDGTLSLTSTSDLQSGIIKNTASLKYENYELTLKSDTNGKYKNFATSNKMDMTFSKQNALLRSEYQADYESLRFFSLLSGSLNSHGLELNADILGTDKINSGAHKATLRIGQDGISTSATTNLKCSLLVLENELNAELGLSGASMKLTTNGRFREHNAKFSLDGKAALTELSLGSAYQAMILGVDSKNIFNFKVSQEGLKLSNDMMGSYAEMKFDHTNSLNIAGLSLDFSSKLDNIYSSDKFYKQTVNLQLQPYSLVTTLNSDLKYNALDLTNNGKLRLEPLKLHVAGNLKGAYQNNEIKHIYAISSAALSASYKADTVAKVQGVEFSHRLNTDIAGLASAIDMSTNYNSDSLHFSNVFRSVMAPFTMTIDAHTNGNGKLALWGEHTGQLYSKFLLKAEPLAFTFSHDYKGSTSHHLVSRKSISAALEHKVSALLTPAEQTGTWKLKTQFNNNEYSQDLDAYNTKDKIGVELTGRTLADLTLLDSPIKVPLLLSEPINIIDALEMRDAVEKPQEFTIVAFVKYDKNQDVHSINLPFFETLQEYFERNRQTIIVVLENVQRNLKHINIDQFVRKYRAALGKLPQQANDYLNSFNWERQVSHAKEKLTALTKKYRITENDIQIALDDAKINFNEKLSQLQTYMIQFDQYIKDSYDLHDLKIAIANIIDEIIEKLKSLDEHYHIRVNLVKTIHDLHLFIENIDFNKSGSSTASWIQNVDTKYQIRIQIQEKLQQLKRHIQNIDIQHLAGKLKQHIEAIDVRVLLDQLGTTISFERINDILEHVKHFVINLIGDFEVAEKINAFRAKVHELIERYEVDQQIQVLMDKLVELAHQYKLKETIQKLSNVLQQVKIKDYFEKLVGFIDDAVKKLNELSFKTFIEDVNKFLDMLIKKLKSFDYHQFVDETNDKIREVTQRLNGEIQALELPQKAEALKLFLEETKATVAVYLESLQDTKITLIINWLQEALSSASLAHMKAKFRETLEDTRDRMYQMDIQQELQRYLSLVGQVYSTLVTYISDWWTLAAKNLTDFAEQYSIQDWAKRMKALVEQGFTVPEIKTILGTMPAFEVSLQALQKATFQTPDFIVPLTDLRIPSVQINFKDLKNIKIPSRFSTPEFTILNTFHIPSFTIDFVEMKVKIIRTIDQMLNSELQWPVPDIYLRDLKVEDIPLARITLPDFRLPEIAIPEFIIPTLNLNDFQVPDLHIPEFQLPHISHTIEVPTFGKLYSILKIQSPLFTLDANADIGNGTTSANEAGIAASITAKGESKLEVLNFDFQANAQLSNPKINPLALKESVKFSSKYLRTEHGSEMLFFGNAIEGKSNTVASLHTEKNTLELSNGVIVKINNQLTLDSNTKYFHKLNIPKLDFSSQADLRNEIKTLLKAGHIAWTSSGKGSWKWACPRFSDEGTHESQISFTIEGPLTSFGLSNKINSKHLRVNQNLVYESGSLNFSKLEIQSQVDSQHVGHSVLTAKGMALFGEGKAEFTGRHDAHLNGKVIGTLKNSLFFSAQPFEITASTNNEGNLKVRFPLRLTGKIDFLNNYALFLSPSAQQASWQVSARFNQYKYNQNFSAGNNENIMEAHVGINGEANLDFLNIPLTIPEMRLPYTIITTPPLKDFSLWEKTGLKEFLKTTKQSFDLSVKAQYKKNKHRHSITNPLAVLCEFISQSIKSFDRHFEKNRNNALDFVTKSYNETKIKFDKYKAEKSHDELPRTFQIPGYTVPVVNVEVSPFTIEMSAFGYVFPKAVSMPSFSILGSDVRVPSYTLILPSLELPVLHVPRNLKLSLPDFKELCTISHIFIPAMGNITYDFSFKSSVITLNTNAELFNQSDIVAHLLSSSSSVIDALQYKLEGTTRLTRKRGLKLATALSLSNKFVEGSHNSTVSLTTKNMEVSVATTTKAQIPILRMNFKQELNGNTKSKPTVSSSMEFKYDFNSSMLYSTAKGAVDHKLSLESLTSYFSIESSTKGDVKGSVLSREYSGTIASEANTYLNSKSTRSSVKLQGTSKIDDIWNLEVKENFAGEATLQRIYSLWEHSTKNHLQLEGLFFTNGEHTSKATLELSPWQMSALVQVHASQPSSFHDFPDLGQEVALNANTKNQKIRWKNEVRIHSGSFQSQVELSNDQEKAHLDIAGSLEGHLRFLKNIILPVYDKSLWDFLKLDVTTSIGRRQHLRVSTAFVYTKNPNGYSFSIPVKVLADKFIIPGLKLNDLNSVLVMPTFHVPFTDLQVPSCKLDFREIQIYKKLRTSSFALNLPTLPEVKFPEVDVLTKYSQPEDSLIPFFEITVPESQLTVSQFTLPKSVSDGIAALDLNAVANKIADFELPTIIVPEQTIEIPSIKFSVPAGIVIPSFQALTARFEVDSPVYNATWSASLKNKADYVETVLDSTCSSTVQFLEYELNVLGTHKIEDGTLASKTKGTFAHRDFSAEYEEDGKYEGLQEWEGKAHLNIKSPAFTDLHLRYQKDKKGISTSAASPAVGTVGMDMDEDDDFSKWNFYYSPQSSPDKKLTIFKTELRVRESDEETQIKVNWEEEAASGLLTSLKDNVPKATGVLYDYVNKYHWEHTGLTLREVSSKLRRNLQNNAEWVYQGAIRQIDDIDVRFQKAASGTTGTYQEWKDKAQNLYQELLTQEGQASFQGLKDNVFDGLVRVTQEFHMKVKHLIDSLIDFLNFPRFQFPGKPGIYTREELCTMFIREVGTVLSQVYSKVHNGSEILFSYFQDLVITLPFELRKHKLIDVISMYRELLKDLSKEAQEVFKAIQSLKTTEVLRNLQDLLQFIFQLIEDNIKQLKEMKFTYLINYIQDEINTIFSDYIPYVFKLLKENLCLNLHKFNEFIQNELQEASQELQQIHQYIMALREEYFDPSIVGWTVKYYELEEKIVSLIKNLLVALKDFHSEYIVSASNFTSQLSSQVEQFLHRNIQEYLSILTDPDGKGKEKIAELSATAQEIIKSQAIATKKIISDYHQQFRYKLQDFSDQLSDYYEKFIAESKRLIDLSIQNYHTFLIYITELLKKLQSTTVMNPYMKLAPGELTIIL

Target: Surfeit 4 (Surf4) (human (endogenous in Huh7 and HepG2)) (UniProt O15260)
Test: co-IP; whole cell lysate of Huh7 or HepG2 cells in lysis buffer A (1% Triton, 150 mM NaCl, 50 mM Hepes, pH 7.4) with rabbit anti-Surf4 antibody 1195Sa or preimmune serum and protein G beads; washed three times with lysis buffer A; Western blot

Question: “apolipoprotein B100 (apoB100) (from UniProt P04114 28-4563)” was tested. Which binding did it give?
Answer: binds
